# Measurements from PubChem BioAssay AID720504 (National Center for Advancing Translational Sciences (NCATS), 2013).
# Protein sequences, listed by entry. Tags and fused reporters are not part of them.
# UniProt P53350, whole entry, looked up: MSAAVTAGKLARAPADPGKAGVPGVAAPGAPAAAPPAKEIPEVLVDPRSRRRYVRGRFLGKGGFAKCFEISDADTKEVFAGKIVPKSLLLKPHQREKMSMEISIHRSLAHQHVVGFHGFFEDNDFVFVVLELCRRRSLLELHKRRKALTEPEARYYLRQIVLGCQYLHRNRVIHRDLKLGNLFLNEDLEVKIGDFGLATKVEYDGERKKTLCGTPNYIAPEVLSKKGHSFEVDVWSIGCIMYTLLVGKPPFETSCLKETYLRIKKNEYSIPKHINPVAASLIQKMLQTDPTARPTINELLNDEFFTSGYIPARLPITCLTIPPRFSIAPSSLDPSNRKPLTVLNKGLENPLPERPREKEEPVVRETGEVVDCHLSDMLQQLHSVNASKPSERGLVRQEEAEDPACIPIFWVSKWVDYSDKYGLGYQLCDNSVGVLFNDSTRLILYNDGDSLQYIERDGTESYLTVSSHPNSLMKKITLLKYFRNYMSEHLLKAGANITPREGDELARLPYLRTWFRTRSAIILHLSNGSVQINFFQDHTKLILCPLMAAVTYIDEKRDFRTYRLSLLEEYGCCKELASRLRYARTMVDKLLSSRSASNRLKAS
# The campaign covered roughly 360,000 compounds. About 10,000 (2.8%) were called active. Inconclusive results, whose numbers are uncertain, are shown with a selection of clear calls. The call rests on the fitted dose curve; in most records, active means well fitted inhibition curve with a large enough effect; inconclusive means small, poorly fitted or top-dose-only effect; inactive means flat fitted curve, though single readings scatter. A potency beside an inconclusive call is a rough fit, not a confirmed value.
# Target: Serine/threonine-protein kinase PLK1 (Homo sapiens) (UniProt P53350)
# Experiment: qHTS for Inhibitors of PLK1-PDB (polo-like kinase 1 - polo-box domain): Primary Screen; further: nearly all actives have a fitted effect of over 65% in size; on max response, negative = inhibition: series mostly up to about 57 µM
# Conditions: Plk1 PBD binding of FITC phosphopeptide, fluorescence polarization
# On the % scale 0 is the no-effect control and ±100 the full control effect; potency means the concentration at half of the fitted maximal effect.
SMILES,Potency,"max response, negative = inhibition"
Cn1c(=O)c2ccccc2n(Cc2ccccc2Cl)c1=O,"inconclusive: 21.2 µM [inhibitor, single point]",–
Cc1ccc(-c2cc(-c3ccccc3)c(C#N)c(N)n2)o1,active: 21.2 µM,–
COc1ccc(OCC(O)Cn2c(=N)n(CCN3CCCCC3)c3ccccc32)cc1 (centres undefined),active: 2.67 µM,–
CC(C)(C)OC(=O)N1CC=C2C(C#N)=C(N)C(C#N)(C#N)[C@H](c3cccnc3)[C@H]2C1,"inconclusive: 23.8 µM [inhibitor, single point]",–
CCOC(=O)c1[nH]c2ccc(Br)cc2c1NC(=O)CCN1CCC(C)CC1,"inconclusive: 37.7 µM [inhibitor, single point]",–
CC(C)(C)Cc1nnc(NS(C)(=O)=O)s1,"inconclusive: 26.7 µM [inhibitor, partial curve]",–
O=C(O)CCC(=O)NNC(=O)CCCOc1ccc(Cl)cc1Cl,"inconclusive: 33.6 µM [inhibitor, single point]",–
N/C(=N\O)c1ccc(NC(=O)c2ccc(Br)o2)cc1,active: 15 µM,–
N#Cc1ccc(/C=C/C(=O)c2cccnc2)cc1,"inconclusive: 26.7 µM [inhibitor, partial curve]",–
CCOc1ccc2[nH]c(=O)c(C(c3nnnn3Cc3ccco3)N3CCC(C)CC3)cc2c1 (centres undefined),"inconclusive: 18.9 µM [inhibitor, partial curve]",–
COc1ccc(O)c(C(=O)C2c3ccccc3C(=O)N2c2ccc(C)cc2)c1 (centres undefined),"inconclusive: 23.8 µM [inhibitor, single point]",–
COc1ccccc1CNC(=O)CCNS(=O)(=O)c1cc(Br)cnc1N,active: 26.7 µM,–
CC(Cc1ccccc1)NC(=O)c1cc([N+](=O)[O-])ccc1Cl (centres undefined),–,inactive: -12.4%
COc1ccc(OC)c(S(=O)(=O)N2CCN(c3ncccn3)CC2)c1,–,inconclusive: -33.1% [inhibitor]
COc1ccc(N2C(=O)C3CC(C)=C(C)CC3C2=O)c(OC)c1 (centres undefined),–,inactive: -0.337%
CCOc1ccc(/C=C2\SC(=S)N(CCC(=O)Nc3cccc(C(=O)O)c3)C2=O)cc1,"inconclusive: 23.8 µM [inhibitor, single point]",–
CCOc1cc(/C=C2/SC(=S)N(CC(=O)O)C2=O)ccc1OC(=O)c1cccs1,"inconclusive: 29.9 µM [inhibitor, partial curve]",–
COc1ccc(NC(=S)NCCCN2CCCC2=O)c(OC)c1,"inconclusive: 29.9 µM [inhibitor, partial curve]",–
CCn1c(SCCN2CCCCC2)nc2c1c(=O)n(C)c(=O)n2C,"inconclusive: 23.8 µM [inhibitor, partial curve]",–

# A draw from above in order of length of the SMILES, rising:
SMILES,Potency,"max response, negative = inhibition"
CC(C)(C)Cc1nnc(NS(C)(=O)=O)s1,"inconclusive: 26.7 µM [inhibitor, partial curve]",–
CCOC(=O)c1[nH]c2ccc(Br)cc2c1NC(=O)CCN1CCC(C)CC1,"inconclusive: 37.7 µM [inhibitor, single point]",–
COc1ccc(OCC(O)Cn2c(=N)n(CCN3CCCCC3)c3ccccc32)cc1 (centres undefined),active: 2.67 µM,–
